From the supplement of paper PMC10338343
± gives the standard deviation. This is a selection; strong and weak results do not stand in their true shares. The uncertainty is large for many entries.

system: MILI (PIWIL2) piRISC loaded with piRNA #2 (26 nt); assay: pre-steady-state target cleavage rate (min^-1); MIWI and MILI are mouse PIWI proteins and EfPiwi is from a freshwater sponge; tags in brackets are library labels; higher = faster piRNA-guided slicing of the target; settings: guide: piRNA #2 5'p-UUAGGUAACCCAGUAGAUCCAGAGGA; auxiliary factor: 500 nM mouse GTSF1
Procedure: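 Cleave-'n-Seq: a library of target RNAs (target site embedded in constant flanks, ACAGCATTCCGCGTTAGTGATATCCG... 5' flank; DNA-blocked outside the site) at 0.1 nM was incubated with 1 nM active mouse MILI or MIWI piRISC (synthetic 5'-monophosphorylated piRNA guide) with or without 500 nM mouse GTSF1 at 33 °C for 1 min to 16 h. Uncleaved targets were sequenced and normalised to non-target controls, and the pooled three trials were fitted to a burst-and-steady-state model to give the pre-steady-state cleavage rate (min^-1; k3 is constrained to at most 1e-4). Sequence is the target site only; target names encode pairing extent (gX:gY) and contiguous / 1-mismatch / 2-mismatch / bulge geometry. Fits with R² ≤ 0 are excluded.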

Row | Sequence | pre-steady-state target cleavage rate
1 | CUUAAGGAGACCAAUCUACUGGGUUACCUAA | 0.00112 ± 0.0082
2 | CUUAAGGAGACGAUCUACUGCGUUACCUAA | 0.00232 ± 0.003
3 | CUUAAGGAGUGGAUCUACUGCGUUACCUUA | 0.00273 ± 0.004
4 | CUUAAGGAGUGGAUCUACUGGGUUACGAUA | 0.00222 ± 0.0054
5 | CUUAUCCUCUGGAUCACUGGGUUACCUAA | 0.0129 ± 0.0061
6 | CUUAAGGUCUGGAUGUACUCGGUUACCUAA | 0.000529 ± 0.028
7 | CUUAAGGAGACCUUCUACUGAGUUACCUAA | 0.00119 ± 0.0074
8 | CUUAUCCUCUGCAUCUACUCGGUUACCUAA | 0.00261 ± 0.0038
9 | CUUAAGGAGACGAUCUACUGGGUUACACUAA | 0.000645 ± 0.013
10 | CUUAAGGUCUGGAUCUACUGGUUACCUAA | 0.00368 ± 0.0042
11 | CUUAAGGACUCGAUCUACUGCGUUACCUAA | 0.00118 ± 0.017
12 | CUUAAGGAGAGGAUCUUCUGGGUUUCCUAA | 0.00163 ± 0.0052
13 | CUUAAGGAGACCUAGUCACUGGGUUACCUAA | 0.000317 ± 0.024
14 | CUUAAGGUCUGGAUCUACUGGGUUAGGUAA | 0.000589 ± 0.018
15 | CUUAAGGAGACGAUCUACUGGGUCACCUAA | 0.00118 ± 0.0079
16 | CUUAAGGAGACGAUCGACUGGGUUACCUAA | 0.00165 ± 0.0052
17 | CUUAAGGAGACGAUCAAGUGGGUUACCUAA | 0.000352 ± 0.02
18 | CUUAAGGAGACGAGCUACUGGGUUACCUAA | 0.00112 ± 0.0073
19 | CUUAAGCUCUGGAUCUACUGCGUUACGUAA | 0.00207 ± 0.005
20 | CUUAAGGAGAGGAUCUAGUGGGUUACCAAA | 0.000516 ± 0.017
21 | CUUAUCCUCUGGUUCUACUGGGUUACGUAA | 0.634 ± 0.25
22 | CUUAAGGAGACCUACUACUGGGGUUACCUAA | 0.000324 ± 0.024
23 | CUUAAGGAGACCUUCUACUGGUGUUACCUAA | 0.00122 ± 0.0085
24 | CUUAAGGUCUGCAUCUACUCGGUUACCUAA | 0.00103 ± 0.015

Row | Sequence | pre-steady-state target cleavage rate
25 | CUUAAGGAGACCUUCUUCUGGGUUACCUAA | 0.00129 ± 0.0069
26 | CUUAAGGAGACGAUCUACUGGGUCUACCUAA | 0.00139 ± 0.0065
27 | CUUAAGGAGAGAAUCUACUGGGUUACCUAA | 0.00325 ± 0.0044
28 | CUUAAGGAGACGAUCUACUGGGUUACCGUAA | 0.0012 ± 0.011
29 | CUUAUCCUCUGGUUCUACUGGGUUACCUUA | 1.12 ± 0.39
30 | CUUAUCCUCUGGAUCUACUCGGUUACCAAA | 0.000883 ± 0.016
31 | CUUAAGGAGACCAACUACUGGGUUAGCUAA | 0.00032 ± 0.033
32 | CUUAAGGAGUGCAUCUACUGCGUUACCUAA | 0.000761 ± 0.018
33 | CUUAAGGAGACCUACUACUGGGUUCACCUAA | 0.000253 ± 0.027
34 | CUUAACCUCUGGAUCUACUCCGUUACCUAA | 0.00101 ± 0.011
35 | CUUAAGGAGACGAUCUACUGGGUAACCUAA | 0.00173 ± 0.0074
36 | CUUAUCCUCUGGAUCUACUGGGGUUACCUAA | 0.0435 ± 0.012
37 | CUUAACCUCUGGAUCUUCUCGGUUACCUAA | 0.00184 ± 0.0055
38 | CUUAAGGUCUGGAUCUACUGGGUUUACCUAA | 0.0618 ± 0.011
39 | CUUAAGGAGACGAUCUUCUCGGUUACCUAA | 0.00112 ± 0.0055
40 | CUUAAGCUGUGGAUCUACUGCGUUACCUAA | 0.00542 ± 0.0084
41 | CUUAAGGAGACCAUCUACUCGGUUACCUAA | 0.00115 ± 0.004
42 | CUUAAGGUCUGCAUCUACUGCGUUACCUAA | 0.00422 ± 0.0061
43 | CUUAUCCUCUGGAUCUACUGGGUUCCUAA | 0.239 ± 0.11
44 | CUUAAGGAGACCAUAUACUGGGUUACCUAA | 0.000474 ± 0.016
45 | CUUAAGGAGACGAUGAUCUGGGUUACCUAA | 0.0001 ± 0.059
46 | CUUAUCCUCUGGAUCUACUGCCAAUGGAUA [g11:g26:cont:t1A] | 0.000413 ± 0.014
47 | CUUAAGGAGUGGAUCUACUGGUUUACCUAA | 0.00276 ± 0.0044
48 | CUUAUCCUCUGGAUCUACUGCGAUACCUAA | 0.00248 ± 0.0039

Row | Sequence | pre-steady-state target cleavage rate
49 | CUUAUCCACUGGAUCUACUCGGUUACCUAA | 0.000839 ± 0.019
50 | CUUAAGGAGACGAUCUACUGGGGUACCUAA | 0.000733 ± 0.01
51 | CUUAAGGAGUGGAUCUACUGGGUUAGCUAA | 0.00262 ± 0.0054
52 | CUUAAGGAGAGCAUCUACUGGGAUACCUAA | 0.00141 ± 0.0076
53 | CUUAAGGAGACCUACUACUCGGUUACCUUA | 0.000345 ± 0.019
54 | CUUAAGGAGAGGAUCUACUGGGUUUCCUUA | 0.00198 ± 0.0045
55 | CUUAAGGAGACCAUCUACUGGGUUACCCAA | 0.000644 ± 0.018
56 | CUUAAGGAGACCUGCUACUGGGUUACCUAA | 0.000614 ± 0.014
57 | CUUAAGGAGACCUACUACUGGGUUACCUA | 0.000287 ± 0.034
58 | CUUAAGGAGACCUUCUAUUGGGUUACCUAA | 0.00155 ± 0.0071
59 | CUUAAGGACAGGAUCUACUGGGUUAGCUAA | 0.000732 ± 0.023
60 | CUUAAGGAGUGGAUGUACUGGGUUACCUUA | 0.0133 ± 0.015
61 | CUUAAGGAGUGGAUCUACUGCGGUUACCUAA | 0.000451 ± 0.0094
62 | CUUAAGGAGUGGAUCUACUGGGUUAACUAA | 0.000525 ± 0.024
63 | CUUAAGGUCUGGAUCUACCUGGGUUACCUAA | 0.000787 ± 0.008
64 | CUUAAGCUCUGGAUCUACUCGGUAACCUAA | 0.00031 ± 0.035
65 | CUUAAGGACUGGAUCAACUGGGUUUCCUAA | 0.00436 ± 0.0066
66 | CUUAAGCUCUGGAUGUAGUGGGUUACCUAA | 0.061 ± 0.011
67 | CUUAAGGAGUGGAUCAUACUGGGUUACCUAA | 0.000183 ± 0.021
68 | CUUAAGGAGACCAUCUACACCGUUACCUAA | 0.000388 ± 0.029
69 | CUUAAGGAGACGAUCUACUGGGUUCACCUAA | 0.00216 ± 0.0051
70 | CUUAAGCCCUGGAUCUACUGGGUUACCUAA | 0.202 ± 0.041
71 | CUUAAGGAGACCUACAUCUGGGUUACCUAA | 0.000283 ± 0.026
72 | CUUAAGGAGACGAUCUACAGGCUUACCUAA | 0.000295 ± 0.021

Rewritten as labelled records: entries from further up
CUUAAGGAGUGGAUCUACUGCGUUACCUUA
  pre-steady-state target cleavage rate = 0.00273 ± 0.004
CUUAAGGUCUGGAUGUACUCGGUUACCUAA
  pre-steady-state target cleavage rate = 0.000529 ± 0.028
CUUAAGGAGACCUUCUACUGAGUUACCUAA
  pre-steady-state target cleavage rate = 0.00119 ± 0.0074
CUUAAGGAGACGAUCGACUGGGUUACCUAA
  pre-steady-state target cleavage rate = 0.00165 ± 0.0052
